These are yes or no findings as the source states them, for the method shown. Some binding calls cover weakened binding; strength is not graded here.
What was measured:
[1] = molecular target: T1, dense aggregated (Thioflavin S positive) medin amyloid deposits in human aorta (human); experiment: immunohistochemistry on thoracic aorta samples
T1 sequence (peptide): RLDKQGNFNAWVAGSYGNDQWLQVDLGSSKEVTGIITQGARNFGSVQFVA

[2] = molecular target: T2, endogenous human medin in patient aorta tissue (human); experiment: immunohistochemistry on thoracic aorta samples
T2 sequence (peptide): T1 sequence (peptide)

[3] = molecular target: T1, dense aggregated (Thioflavin S positive) medin amyloid deposits in human aorta (human); experiment: immunohistochemistry on aorta samples of Marfan syndrome patients
[4] = molecular target: T2, endogenous human medin in patient aorta tissue (human); experiment: as above
[5] = molecular target: T1, dense aggregated (Thioflavin S positive) medin amyloid deposits in human aorta (human); experiment: immunohistochemistry on thoracic aorta samples of aneurysm patients
[6] = molecular target: T2, endogenous human medin in patient aorta tissue (human); experiment: as above

binding [1]: binds | binding [2]: binds | binding [3]: binds | binding [4]: binds | binding [5]: binds | binding [6]: binds
B1: mouse monoclonal antibody 6B3 (antibody, V domains shown)
VH: QVTLKESGPGILQPSQTLSLTCSFSGFSLSTSDMGVGWIRQPSGKGLEWLAHIWWNDNKYYNIALKNRLTVSKDTSNNQVFLKIASVDTADTATYYCARLVGSWFAYWGQGTLVTVSA
VL: DIQMTQTTSSLSASLGDRVTISCRASQDISNFLSWYHQKPDGTVKLLIYYTSRLHSGVPPRFSGSGSGTDYSLTISNLEQEDIATYFCQQGKTLPPTFGGGTKLEIK
notes: Mouse hybridoma IgG raised against full-length human medin; also called m6B3; PRT6B3

Source: patent US20170121397A1 (PROTHENA BIOSCIENCES, published 2017)
